Source: the supplement of paper PMC12067093, “Discovery and optimisation of a covalent ligand for TRIM25 and its application to targeted protein ubiquitination” (Chemical Science, 2025)
The other results are listed elsewhere or left out.

The chains behind the UniProt entries cited, without tags or fusion partners. Where a name states a change or a piece, a line headed by the entry shows the natural chain unless it says otherwise.
UniProt Q5BKZ1: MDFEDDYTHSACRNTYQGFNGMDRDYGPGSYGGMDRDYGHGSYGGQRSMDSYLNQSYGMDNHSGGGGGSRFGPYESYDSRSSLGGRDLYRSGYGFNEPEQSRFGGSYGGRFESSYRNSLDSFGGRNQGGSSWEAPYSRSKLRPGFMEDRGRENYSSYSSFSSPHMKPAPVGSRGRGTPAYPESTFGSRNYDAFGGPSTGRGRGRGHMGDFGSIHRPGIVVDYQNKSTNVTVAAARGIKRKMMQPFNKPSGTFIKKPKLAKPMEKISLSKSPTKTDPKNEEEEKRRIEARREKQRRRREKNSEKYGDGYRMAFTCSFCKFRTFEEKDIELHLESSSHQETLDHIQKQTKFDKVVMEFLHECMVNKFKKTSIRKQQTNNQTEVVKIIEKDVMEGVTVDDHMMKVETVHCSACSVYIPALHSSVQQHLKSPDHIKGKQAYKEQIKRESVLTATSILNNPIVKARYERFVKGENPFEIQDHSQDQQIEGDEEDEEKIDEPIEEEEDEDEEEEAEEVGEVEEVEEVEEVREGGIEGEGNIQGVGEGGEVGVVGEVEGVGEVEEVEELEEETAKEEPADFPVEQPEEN
UniProt Q92610: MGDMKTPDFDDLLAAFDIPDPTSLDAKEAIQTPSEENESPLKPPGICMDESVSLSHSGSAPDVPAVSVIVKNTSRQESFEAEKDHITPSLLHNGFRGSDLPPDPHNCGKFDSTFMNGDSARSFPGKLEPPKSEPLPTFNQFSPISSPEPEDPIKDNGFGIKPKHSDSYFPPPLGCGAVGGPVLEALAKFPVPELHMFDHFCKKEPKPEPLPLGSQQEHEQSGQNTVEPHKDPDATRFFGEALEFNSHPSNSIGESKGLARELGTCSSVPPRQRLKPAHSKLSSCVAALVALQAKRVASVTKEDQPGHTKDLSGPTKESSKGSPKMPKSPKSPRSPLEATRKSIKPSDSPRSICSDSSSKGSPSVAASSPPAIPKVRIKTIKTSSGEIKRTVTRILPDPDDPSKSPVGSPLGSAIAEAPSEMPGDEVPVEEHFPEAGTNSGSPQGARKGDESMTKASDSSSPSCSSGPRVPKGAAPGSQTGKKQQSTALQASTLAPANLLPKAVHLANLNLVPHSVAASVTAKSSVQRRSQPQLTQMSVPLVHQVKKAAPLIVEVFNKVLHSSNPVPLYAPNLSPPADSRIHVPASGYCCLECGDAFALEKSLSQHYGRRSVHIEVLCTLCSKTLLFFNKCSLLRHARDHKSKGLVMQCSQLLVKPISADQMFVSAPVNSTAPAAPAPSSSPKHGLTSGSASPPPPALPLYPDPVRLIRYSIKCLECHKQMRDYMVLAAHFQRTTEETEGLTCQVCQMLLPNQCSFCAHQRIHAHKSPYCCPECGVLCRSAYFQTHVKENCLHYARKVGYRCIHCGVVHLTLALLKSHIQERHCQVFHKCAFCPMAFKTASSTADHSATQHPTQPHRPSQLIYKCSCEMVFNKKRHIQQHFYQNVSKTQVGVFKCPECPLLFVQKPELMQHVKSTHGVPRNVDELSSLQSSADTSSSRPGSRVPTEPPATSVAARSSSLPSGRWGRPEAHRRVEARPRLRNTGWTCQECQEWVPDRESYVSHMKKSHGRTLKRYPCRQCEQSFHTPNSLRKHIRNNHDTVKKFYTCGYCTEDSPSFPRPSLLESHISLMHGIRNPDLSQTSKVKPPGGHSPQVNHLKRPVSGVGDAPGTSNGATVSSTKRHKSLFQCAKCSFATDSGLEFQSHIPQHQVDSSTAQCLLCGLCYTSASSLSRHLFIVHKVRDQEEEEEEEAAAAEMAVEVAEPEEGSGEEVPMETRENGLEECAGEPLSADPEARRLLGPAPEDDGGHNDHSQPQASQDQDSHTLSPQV
UniProt Q8N1G0: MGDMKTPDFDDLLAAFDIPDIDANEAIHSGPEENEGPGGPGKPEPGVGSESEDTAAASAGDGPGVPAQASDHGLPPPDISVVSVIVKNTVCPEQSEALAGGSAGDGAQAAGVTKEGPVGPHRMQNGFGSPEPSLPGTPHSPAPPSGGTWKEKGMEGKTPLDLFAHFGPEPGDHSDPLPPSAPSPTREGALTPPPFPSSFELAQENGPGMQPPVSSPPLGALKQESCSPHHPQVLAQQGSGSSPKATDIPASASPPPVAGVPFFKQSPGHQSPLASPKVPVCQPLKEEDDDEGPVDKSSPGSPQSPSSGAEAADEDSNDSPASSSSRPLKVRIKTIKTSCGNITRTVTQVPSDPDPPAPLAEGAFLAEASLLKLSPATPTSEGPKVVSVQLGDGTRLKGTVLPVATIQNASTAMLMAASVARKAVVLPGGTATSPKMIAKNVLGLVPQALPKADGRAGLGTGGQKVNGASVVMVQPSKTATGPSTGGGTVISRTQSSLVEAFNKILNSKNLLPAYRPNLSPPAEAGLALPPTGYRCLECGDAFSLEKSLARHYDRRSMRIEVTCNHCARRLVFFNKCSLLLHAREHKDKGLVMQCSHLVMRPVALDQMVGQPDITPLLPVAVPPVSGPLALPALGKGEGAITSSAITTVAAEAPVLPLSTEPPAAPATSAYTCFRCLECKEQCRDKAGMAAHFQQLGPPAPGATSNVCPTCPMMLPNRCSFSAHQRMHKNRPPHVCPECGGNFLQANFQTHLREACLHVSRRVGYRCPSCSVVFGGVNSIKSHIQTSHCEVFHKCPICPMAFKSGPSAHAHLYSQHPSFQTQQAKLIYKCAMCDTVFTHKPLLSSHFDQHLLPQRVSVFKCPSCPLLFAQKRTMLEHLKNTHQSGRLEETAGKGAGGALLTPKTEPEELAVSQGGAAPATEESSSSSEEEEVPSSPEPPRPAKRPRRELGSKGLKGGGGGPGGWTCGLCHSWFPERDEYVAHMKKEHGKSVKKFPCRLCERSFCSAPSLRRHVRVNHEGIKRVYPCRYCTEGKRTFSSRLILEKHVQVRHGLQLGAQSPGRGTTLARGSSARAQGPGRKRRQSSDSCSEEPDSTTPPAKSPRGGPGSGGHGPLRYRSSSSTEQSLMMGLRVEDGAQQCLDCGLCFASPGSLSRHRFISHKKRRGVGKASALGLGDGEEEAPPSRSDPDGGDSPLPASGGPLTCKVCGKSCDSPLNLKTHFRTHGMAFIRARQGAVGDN
UniProt O95159: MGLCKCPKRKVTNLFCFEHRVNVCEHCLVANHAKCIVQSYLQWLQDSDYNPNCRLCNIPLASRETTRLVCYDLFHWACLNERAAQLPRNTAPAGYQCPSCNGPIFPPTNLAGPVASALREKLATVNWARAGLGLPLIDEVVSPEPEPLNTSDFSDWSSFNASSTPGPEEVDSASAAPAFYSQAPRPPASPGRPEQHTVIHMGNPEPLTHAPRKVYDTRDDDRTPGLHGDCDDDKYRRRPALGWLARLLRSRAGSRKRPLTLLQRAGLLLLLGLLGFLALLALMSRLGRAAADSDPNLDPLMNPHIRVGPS
UniProt Q9ULU4: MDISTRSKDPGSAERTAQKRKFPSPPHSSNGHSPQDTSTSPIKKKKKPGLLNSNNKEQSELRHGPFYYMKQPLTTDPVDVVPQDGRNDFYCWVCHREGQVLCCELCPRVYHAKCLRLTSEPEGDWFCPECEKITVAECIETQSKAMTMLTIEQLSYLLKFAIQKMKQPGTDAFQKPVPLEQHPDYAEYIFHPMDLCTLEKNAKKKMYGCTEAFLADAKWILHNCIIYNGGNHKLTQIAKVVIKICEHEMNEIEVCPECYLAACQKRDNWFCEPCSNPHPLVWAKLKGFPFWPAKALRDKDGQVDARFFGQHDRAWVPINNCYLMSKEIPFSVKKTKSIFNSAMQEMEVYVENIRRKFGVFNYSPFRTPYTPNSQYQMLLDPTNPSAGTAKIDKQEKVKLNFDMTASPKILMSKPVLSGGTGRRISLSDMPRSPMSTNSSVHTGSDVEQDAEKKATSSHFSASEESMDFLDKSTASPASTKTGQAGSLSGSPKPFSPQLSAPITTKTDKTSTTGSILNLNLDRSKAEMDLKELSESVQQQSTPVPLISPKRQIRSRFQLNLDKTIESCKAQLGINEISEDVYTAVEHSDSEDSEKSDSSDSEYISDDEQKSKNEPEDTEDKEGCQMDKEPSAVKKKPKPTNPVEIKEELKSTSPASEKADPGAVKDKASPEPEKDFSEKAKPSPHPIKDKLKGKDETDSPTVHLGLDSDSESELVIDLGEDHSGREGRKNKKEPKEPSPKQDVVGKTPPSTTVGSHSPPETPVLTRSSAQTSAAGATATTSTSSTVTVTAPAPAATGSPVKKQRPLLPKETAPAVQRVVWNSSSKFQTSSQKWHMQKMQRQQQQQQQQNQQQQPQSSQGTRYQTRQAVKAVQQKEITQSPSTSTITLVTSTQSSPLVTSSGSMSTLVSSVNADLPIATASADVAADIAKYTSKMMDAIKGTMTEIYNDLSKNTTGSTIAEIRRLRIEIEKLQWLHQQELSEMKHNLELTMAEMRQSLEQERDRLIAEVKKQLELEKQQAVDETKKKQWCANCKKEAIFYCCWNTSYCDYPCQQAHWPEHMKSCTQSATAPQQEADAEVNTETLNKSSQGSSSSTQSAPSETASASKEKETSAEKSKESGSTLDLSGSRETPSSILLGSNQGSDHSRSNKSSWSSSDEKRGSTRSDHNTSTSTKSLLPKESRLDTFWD
UniProt Q14966: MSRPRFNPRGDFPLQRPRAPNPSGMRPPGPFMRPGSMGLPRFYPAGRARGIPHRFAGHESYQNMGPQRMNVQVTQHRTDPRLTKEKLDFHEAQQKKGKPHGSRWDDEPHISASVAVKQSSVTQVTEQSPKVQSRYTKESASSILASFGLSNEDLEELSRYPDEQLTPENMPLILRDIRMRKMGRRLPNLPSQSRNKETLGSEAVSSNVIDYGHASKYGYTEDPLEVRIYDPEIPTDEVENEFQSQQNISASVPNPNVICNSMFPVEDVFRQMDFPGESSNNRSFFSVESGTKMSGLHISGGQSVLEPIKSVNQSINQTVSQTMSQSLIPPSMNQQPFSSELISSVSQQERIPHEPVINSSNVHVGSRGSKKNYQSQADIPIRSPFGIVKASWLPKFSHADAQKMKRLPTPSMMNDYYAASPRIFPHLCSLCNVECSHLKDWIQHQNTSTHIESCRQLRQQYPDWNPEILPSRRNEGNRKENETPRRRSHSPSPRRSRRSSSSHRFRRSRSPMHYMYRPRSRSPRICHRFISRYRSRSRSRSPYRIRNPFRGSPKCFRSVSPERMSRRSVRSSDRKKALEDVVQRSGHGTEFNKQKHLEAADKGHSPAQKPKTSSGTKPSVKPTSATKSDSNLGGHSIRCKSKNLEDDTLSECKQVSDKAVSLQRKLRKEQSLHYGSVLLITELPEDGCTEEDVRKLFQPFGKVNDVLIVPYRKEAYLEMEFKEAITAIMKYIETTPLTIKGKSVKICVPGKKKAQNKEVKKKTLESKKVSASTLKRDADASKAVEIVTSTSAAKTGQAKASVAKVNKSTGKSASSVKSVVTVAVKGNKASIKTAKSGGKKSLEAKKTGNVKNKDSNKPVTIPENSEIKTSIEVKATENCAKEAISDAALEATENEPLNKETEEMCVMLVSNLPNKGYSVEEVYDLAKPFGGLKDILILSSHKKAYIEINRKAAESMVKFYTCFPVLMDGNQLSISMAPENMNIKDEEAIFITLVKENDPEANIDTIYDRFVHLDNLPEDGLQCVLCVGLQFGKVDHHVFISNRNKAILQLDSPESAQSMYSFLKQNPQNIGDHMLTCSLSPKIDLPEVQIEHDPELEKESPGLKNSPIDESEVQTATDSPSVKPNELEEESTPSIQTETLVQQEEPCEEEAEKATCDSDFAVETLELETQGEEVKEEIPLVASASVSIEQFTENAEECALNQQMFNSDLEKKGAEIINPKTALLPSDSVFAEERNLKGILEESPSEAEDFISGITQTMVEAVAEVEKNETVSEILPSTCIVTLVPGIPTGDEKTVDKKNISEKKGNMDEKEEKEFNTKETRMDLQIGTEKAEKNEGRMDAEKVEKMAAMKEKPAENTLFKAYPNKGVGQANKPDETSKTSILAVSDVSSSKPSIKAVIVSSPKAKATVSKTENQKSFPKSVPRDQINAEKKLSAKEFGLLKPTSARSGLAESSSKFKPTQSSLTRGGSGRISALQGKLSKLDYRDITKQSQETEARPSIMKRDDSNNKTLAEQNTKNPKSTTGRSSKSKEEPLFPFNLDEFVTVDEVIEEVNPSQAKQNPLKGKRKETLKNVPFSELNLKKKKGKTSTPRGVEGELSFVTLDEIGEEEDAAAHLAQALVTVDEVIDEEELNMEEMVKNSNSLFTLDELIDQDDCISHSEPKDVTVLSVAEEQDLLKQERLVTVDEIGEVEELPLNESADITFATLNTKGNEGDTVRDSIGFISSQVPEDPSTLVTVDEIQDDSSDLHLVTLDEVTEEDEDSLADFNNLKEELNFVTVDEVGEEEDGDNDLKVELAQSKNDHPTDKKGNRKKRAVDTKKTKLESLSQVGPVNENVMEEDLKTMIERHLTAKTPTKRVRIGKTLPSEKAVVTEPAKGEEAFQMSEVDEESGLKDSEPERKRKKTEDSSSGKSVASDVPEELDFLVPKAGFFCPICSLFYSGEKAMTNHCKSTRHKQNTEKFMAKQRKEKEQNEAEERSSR

The targets below were run with CC1Cc2ccccc2N1C(=O)C1CCCN(C1)C(=O)CCl (mixture of isomers) [TRIM25 ligand 11 (diastereomer mixture)] (assay: probe-labelled cysteine peptide fold change vs DMSO (competition) (log2 fold change); higher = less target engagement (more negative = stronger competition)). Conditions: 50 µM; THP-1; incubation time: 4 h.
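Also: competitive chemoproteomic profiling in live THP-1 cells with an iodoacetamide desthiobiotin (IA-DTB) probe, comparing probe-labelled peptide intensities in compound-treated cells against DMSO-treated controls.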

How did the “probe-labelled cysteine peptide fold change” value turn out when “ZNF101_Q8IZC7_321_CPTSLQAHER (UniProt Q8IZC7)” was run?
The value was -0.0291.

With “ZNF428_Q96B54_114_LCCPATAPQEAPAPEGR (UniProt Q96B54)” as the target, how does the “probe-labelled cysteine peptide fold change” value read?
Its value is -0.17.

Which “probe-labelled cysteine peptide fold change” value does the source give for “ZNF598_Q86UK7_867_VCPTCQQVLAHGDASSHQALHAAR (UniProt Q86UK7)” here?
The value was 0.023.

For “ZNF580_Q9UK33_122_VSHSDLKPFTCGACGK (UniProt Q9UK33)”, which “probe-labelled cysteine peptide fold change” value is on record?
Its value is -0.0384.

“ZNF521_Q96K83_537_QVHCDLSGSR (UniProt Q96K83)” was tested. Which “probe-labelled cysteine peptide fold change” value did it give?
The value was -0.0659.

How did the “probe-labelled cysteine peptide fold change” value turn out when “ZNF460_Q14592_313_KPFACSECGK (UniProt Q14592)” was run?
Its value is 0.174.

For “ZFAND3_Q9H8U3_181_CGYVFCMLHR (UniProt Q9H8U3)”, which “probe-labelled cysteine peptide fold change” value is on record?
Its value is -0.159.

Which “probe-labelled cysteine peptide fold change” value does the source give for “ZNF326_Q5BKZ1_12_MDFEDDYTHSACR (UniProt Q5BKZ1)” here?
The value was -0.303.

How did the “probe-labelled cysteine peptide fold change” value turn out when “ZNF512_Q96ME7_192_HMENCK (UniProt Q96ME7)” was run?
Its value is -0.0157.

With “ZNF207_O43670_13_QLKPWCWYCNR (UniProt O43670)” as the target, how does the “probe-labelled cysteine peptide fold change” value read?
The value was -0.325.

With “ZNF143_P52747_364_THTGERPYYCTEPGCGR (UniProt P52747)” as the target, how does the “probe-labelled cysteine peptide fold change” value read?
The value was 0.0623.

“ZNF106_Q9H2Y7_1131_IQILQGLQETYEPSEHPDQVPCSLTR (UniProt Q9H2Y7)” was tested. Which “probe-labelled cysteine peptide fold change” value did it give?
Its value is 0.108.

Which “probe-labelled cysteine peptide fold change” value does the source give for “ZNF592_Q92610_592_IHVPASGYCCLECGDAFALEK (UniProt Q92610)” here?
Its value is 0.078.

Which “probe-labelled cysteine peptide fold change” value does the source give for “ZNF687_Q8N1G0_718_CSFSAHQR (UniProt Q8N1G0)” here?
Its value is -0.0697.

With “ZNF483_Q8TF39_392_IHLGDRSQKCSK (UniProt Q8TF39)” as the target, how does the “probe-labelled cysteine peptide fold change” value read?
Its value is 0.299.

With “ZFPL1_O95159_16_VTNLFCFEHR (UniProt O95159)” as the target, how does the “probe-labelled cysteine peptide fold change” value read?
The value was 0.112.

For “ZMYM2_Q9UBW7_331_VTCANCK (UniProt Q9UBW7)”, which “probe-labelled cysteine peptide fold change” value is on record?
The value was 0.0901.

With “ZMYND8_Q9ULU4_1062_SCTQSATAPQQEADAEVNTETLNK (UniProt Q9ULU4)” as the target, how does the “probe-labelled cysteine peptide fold change” value read?
Its value is 0.224.

“ZNF292_O60281_1909_VNKPFVCQNQGCNYSAMTK (UniProt O60281)” was tested. Which “probe-labelled cysteine peptide fold change” value did it give?
The value was -0.237.

For “ZNF609_O15014_178_SEGVGTCSEK (UniProt O15014)”, which “probe-labelled cysteine peptide fold change” value is on record?
Its value is -0.0851.

How did the “probe-labelled cysteine peptide fold change” value turn out when “ZNF512_Q96ME7_540_NNEELVVSASCK (UniProt Q96ME7)” was run?
The value was -0.146.

Which “probe-labelled cysteine peptide fold change” value does the source give for “ZNF597_Q96LX8_386_TCEESFALDSELACHQK (UniProt Q96LX8)” here?
Its value is -0.17.

How did the “probe-labelled cysteine peptide fold change” value turn out when “ZNF638_Q14966_1156_ATCDSDFAVETLELETQGEEVK (UniProt Q14966)” was run?
The value was -0.289.

For “ZNF326_Q5BKZ1_314_MAFTCSFCK (UniProt Q5BKZ1)”, which “probe-labelled cysteine peptide fold change” value is on record?
The value was 0.044.

With “ZMYND8_Q9ULU4_567_TIESCK (UniProt Q9ULU4)” as the target, how does the “probe-labelled cysteine peptide fold change” value read?
Its value is -0.128.

Which “probe-labelled cysteine peptide fold change” value does the source give for “ZFYVE26_Q68DK2_60_RVEDILQALVVCPNLLR (UniProt Q68DK2)” here?
The value was -0.114.

How did the “probe-labelled cysteine peptide fold change” value turn out when “ZNF217_O75362_93_HVLMQHRPTLCEPAVLR (UniProt O75362)” was run?
The value was -0.0425.

With “ZNF687_Q8N1G0_576_CSLLLHAR (UniProt Q8N1G0)” as the target, how does the “probe-labelled cysteine peptide fold change” value read?
The value was 0.0491.

“ZNF280D_Q6N043_449_NLLCPFCLK (UniProt Q6N043)” was tested. Which “probe-labelled cysteine peptide fold change” value did it give?
Its value is -0.0986.

For “ZNF598_Q86UK7_150_LCLQHLQIFTYER (UniProt Q86UK7)”, which “probe-labelled cysteine peptide fold change” value is on record?
Its value is 0.0557.

Which “probe-labelled cysteine peptide fold change” value does the source give for “ZNF638_Q14966_1947_AMTNHCK (UniProt Q14966)” here?
The value was -0.253.

For “ZNF598_Q86UK7_835_QQELLSAHTDFCNR (UniProt Q86UK7)”, which “probe-labelled cysteine peptide fold change” value is on record?
Its value is -0.302.

How did the “probe-labelled cysteine peptide fold change” value turn out when “ZNF451_Q9Y4E5_940_IGCFFLHPR (UniProt Q9Y4E5)” was run?
The value was -0.0177.

“ZMYND11_Q15326_258_DTCHELDELQLCK (UniProt Q15326)” was tested. Which “probe-labelled cysteine peptide fold change” value did it give?
The value was 0.18.

For “ZNF316_A6NFI3_808_AHTGERPYACGECGR (UniProt A6NFI3)”, which “probe-labelled cysteine peptide fold change” value is on record?
Its value is -0.0681.

“ZNF592_Q92610_790_ENCLHYAR (UniProt Q92610)” was tested. Which “probe-labelled cysteine peptide fold change” value did it give?
Its value is 0.113.

With “ZNF592_Q92610_648_GLVMQCSQLLVK (UniProt Q92610)” as the target, how does the “probe-labelled cysteine peptide fold change” value read?
Its value is 0.172.

With “ZNF281_Q9Y2X9_291+294_HVLIHTGERPFQCSQCSMGFIQK (UniProt Q9Y2X9)” as the target, how does the “probe-labelled cysteine peptide fold change” value read?
The value was 0.0267.

Which “probe-labelled cysteine peptide fold change” value does the source give for “ZNF644_Q9H582_1233_MDLTMHSALDCK (UniProt Q9H582)” here?
The value was -0.274.
